## Screening data, single-dose tests

Data taken from ChEMBL document CHEMBL3988442, “University of Dundee, Small-Polar-MMV Screening Library” (2021).

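Whole-parasite assay of Trypanosoma brucei over 72 hours; the read-out is not stated. Compounds at 30 µM. The record gives no direction; compounds that gave an IC50 in retests scored well above the rest, so higher reads as stronger inhibition. Values scatter widely below zero; nearly all retest evidence comes from the higher of the two concentrations used. Size under these conditions: about 64,000 compounds, about 940 of them at 50% or above in at least one test.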

The filed quantity is “Percent Effect” (%).
The record does not define 0% and 100%; most values in the screen are far below 50% and negative numbers occur (in some assays of this library far below -100).
The compounds are a random part of those screened.

| # | SMILES | effect |
|---|---|---|
| 1 | `Cc1cccc(OCCN2CCC(c3ccnn3CCO)CC2)c1` | 18.73 |
| 2 | `CC(C)CCNC(=O)CNC(=O)N1CCc2c([nH]c3ccc(Cl)cc23)C1` | -27.01 |
| 3 | `O=C(CCC1CCCCC1)NS(=O)(=O)CC1CC1` | -73.14 |
| 4 | `CSc1nc(C2CC2)nc(C)c1C(=O)NCc1ncc(C)o1` | -0.8733 |
| 5 | `O=C(O)c1ccn(-c2ccccc2NS(=O)(=O)c2ccccc2)n1` | -0.4937 |
| 6 | `O=C(CCn1ccc2ccc(Cl)cc21)NCc1ccc(C(=O)O)cc1` | -23.19 |
| 7 | `COCCCn1c(CN2CCSCC2)cnc1S(=O)(=O)C1CCCC1` | 6.399 |
| 8 | `Cn1nc(C#N)c2c1CN(C(=O)c1ccsc1)CCC2` | -87.54 |
| 9 | `Cc1ccc(F)c2c1N(C(=O)Cc1c(C)nn(C)c1C)CCC2` | -1.723 |
| 10 | `COc1ccccc1C(=O)NS(=O)(=O)c1cncc(Br)c1` | -4.104 |
| 11 | `[H][C@@]12C[C@H](O)CCN1C(=O)CN(CCOC)C2=O` | -27.67 |
| 12 | `O=C(O)C(F)(F)F.[H][C@@]12C[C@H](C(=O)N3CCCCO3)CN(Cc3ccc(F)cc3)[C@]1([H])CCO2` | -288.9 |
| 13 | `CNC(=O)c1nn(C)cc1NC(=O)C(C)n1ncc(Cl)c1C` (centres undefined) | -44.65 |
| 14 | `CCNC(=O)CN1CCSC2(CCCCC2)C1` | 22.54 |
| 15 | `COCCN1CCC(CN(Cc2ccncc2)C2CCC2)CC1` | -21.43 |
| 16 | `Cc1noc(C)c1CNCC1CCCN1c1cccnn1` (centres undefined) | -71.27 |
| 17 | `O=C(COCc1nc(-c2ccncc2)no1)NC1CCCCC1` | 16.23 |
| 18 | `CN(C)S(=O)(=O)N1CCC(Oc2ccc(C#N)cn2)CC1` | 36.96 |
| 19 | `CC(O)CN1CCC(CNCc2ccccc2Br)CC1` (centres undefined) | -12.76 |
| 20 | `[H][C@]12CCN(S(=O)(=O)c3ccccc3)[C@@]1([H])CC[C@H](COC)O2` | -32.93 |
| 21 | `Cc1ccc(OCc2occc2C(=O)N2CC[C@H](CO)[C@@H](O)C2)cc1` | -34.31 |
| 22 | `COc1cc(C2CC(=O)Nc3c2cnn3C)ccc1O` (centres undefined) | -24.11 |
| 23 | `O=C1NCCN(C(=O)c2cn3ccsc3n2)C1c1cccc(F)c1` (centres undefined) | -15.9 |
| 24 | `COCCNC(=O)CCN1C(=O)CC2(CCCC2)C1=O` | -1.014 |
| 25 | `COc1ccc(C(=O)N(C)Cc2cccc(C#N)c2)c(OC)c1OC` | 14.77 |
| 26 | `COc1ccc(NC(=O)NC(C)(C)c2noc(C)n2)cc1` | -66.24 |
| 27 | `CCc1nc2c(c(NCc3cc(-c4cccnc4)no3)n1)CCNCC2` | -38.74 |

Repeated from the top, 2 entries:

Cc1cccc(OCCN2CCC(c3ccnn3CCO)CC2)c1 gave 18.73%.
CC(C)CCNC(=O)CNC(=O)N1CCc2c([nH]c3ccc(Cl)cc23)C1 gave -27.01%.